Measurements as given in patent publication US20230167179A1 (CENTRE NATIONAL DE LA RECHERCHE SCIENTIFIQUE, published 2023).
These are yes or no findings as the source states them, for the method shown. Some entries that bind do so weakly or less than the wild type.

The chains behind the UniProt entries cited, without tags or fusion partners. Where a name states a change or a piece, a line headed by the entry shows the natural chain unless it says otherwise.
UniProt P18510: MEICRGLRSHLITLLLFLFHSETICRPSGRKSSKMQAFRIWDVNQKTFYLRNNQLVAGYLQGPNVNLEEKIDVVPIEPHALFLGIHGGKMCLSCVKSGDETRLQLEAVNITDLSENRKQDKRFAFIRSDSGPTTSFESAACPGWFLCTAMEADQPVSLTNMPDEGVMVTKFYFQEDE

What was measured:
[1] = target: native IL-1RA produced by human cells (human) (UniProt P18510); experiment: sandwich ELISA on diluted human sera
[2] = target: native IL-1RA produced by human cells (human) (UniProt P18510); experiment: sandwich ELISA, OD 450 nm, capture antibody 1 µg/well, 10 µl of supernatant of THP1 cells with or without PMA, biotinylated detection antibody
[3] = target: native IL-1RA produced by human cells (human) (UniProt P18510); experiment: sandwich ELISA with antibody pairs, supernatant of PMA-stimulated THP1 cells

Measured: binding

B1: 908.9G5B9 (antibody, V domains shown)
VH: EVQLQQSGAELVKPGASVKLSCTVSGFNITDTYIHWVKQRPEKGLEWIGRIDPANGNTKYDPKLQGKATITADTSSNTAYLQLSSLTSEDTAVYYCARDGTYVYYAMDYWGQGTSVTVSS
VL: DIQMTQSPASLSASVGETVTITCRASENIFIYLAWYQQKQGKSPQLLVYNAKTLAEGVPSRFSGSGSGTQFSLKINSLLPEDFGSYYCQHHYGIPFTFGSGTKLEIE
notes: Biotinylated in the Octet assay; fixed (capture) antibody in the sandwich ELISAs
binds: [1] | [2] | [3]

B2: 908.9E11B6 (antibody, IgG1, V domains shown)
VH: QVQLKESGPGLVAPSQSLSITCTVSGFSLTSYGVHWVRQPPGKGLEWLGVIWAGGVTHYNSALMSRLNISKDNSQSQVFLKMNSLRTDDTAMYYCARGGALLRSHFDYWGQGTTLTVSS
VL: QAVVTQESALTTSPGETVTLTCRSSTGAVTTSNYANWVQEKPDHLFTGLIGGTNNRAPGVPARFSGSLIGDKAALTITGAQTEDEAIYHCALWYSNLWVFGGRTKLTVL
binds: [1] | [2] | [3]

B3: 908.10E12C1 (antibody, IgG1, V domains shown)
VH: EVQLQQSGPELVKPGASVKISCKTSGYTFTEYTMHWVKQSHGKSLEWIGSINPNNGGTNYNQKFKGKATLTVDKSSNTAYMELRSLTSGDSAVYYCARTLYYAMDYWGQGTSVTVSS
VL: DIVMTQSPSSLAMSVGQKVTMSCKSSQSLLNSSNQKNYLAWYQQKPRQSPKLLVYFASTRDSGVPDRFLGSGSGTDFTLTINRVQAEDLADYFCQQHYILPPTFGAGTKLELK
binds: [1] | [2] | [3]
